Here are results for one substance from PMC1794522.

By UniProt entry, the sequences of proteins in these tests, tags left out.
UniProt P35568: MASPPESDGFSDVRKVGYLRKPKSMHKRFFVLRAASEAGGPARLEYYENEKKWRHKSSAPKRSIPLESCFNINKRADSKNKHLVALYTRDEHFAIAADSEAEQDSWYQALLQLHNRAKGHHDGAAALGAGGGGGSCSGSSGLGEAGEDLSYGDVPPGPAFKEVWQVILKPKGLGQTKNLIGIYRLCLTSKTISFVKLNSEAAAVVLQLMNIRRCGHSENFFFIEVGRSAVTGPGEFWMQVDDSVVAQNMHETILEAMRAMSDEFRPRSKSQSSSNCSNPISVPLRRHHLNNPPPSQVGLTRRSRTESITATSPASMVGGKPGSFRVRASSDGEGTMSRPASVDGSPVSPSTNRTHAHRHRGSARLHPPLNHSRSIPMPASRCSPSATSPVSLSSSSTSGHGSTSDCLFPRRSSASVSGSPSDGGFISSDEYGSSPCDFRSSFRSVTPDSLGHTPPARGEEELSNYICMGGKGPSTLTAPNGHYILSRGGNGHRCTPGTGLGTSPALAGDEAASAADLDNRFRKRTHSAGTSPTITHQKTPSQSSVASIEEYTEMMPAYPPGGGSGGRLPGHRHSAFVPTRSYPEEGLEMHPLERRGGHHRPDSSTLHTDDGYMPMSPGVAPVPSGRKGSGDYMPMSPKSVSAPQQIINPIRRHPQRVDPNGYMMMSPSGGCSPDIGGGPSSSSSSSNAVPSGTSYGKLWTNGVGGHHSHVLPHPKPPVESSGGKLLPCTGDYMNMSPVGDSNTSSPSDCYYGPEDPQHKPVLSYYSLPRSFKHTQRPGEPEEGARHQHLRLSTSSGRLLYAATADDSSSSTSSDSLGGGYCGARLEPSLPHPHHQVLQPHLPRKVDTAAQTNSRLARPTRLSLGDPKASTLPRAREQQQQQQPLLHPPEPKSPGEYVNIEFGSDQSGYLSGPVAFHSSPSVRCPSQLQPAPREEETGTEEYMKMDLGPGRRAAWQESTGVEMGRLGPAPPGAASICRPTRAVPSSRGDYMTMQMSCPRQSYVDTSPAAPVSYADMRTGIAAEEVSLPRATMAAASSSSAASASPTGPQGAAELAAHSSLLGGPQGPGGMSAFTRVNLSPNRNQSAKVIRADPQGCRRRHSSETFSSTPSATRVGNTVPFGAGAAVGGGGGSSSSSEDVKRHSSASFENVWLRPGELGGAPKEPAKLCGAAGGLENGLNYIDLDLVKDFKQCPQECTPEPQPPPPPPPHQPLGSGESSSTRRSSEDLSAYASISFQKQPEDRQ
UniProt P62993: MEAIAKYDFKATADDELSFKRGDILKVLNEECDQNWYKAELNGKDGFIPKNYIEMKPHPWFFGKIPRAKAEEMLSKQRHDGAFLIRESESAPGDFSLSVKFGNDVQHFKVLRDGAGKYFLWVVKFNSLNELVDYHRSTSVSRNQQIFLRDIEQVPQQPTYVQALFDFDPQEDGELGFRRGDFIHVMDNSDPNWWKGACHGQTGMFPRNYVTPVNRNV

These are yes or no findings as the source states them, for the method shown. Binding seen in cells or lysates may run through a third protein. Some binding calls cover weakened binding; strength is not graded here.

This test has as its target insulin receptor substrate (IRS)-1 (human (endogenous in primary subchondral bone osteoblasts)) (UniProt P35568). The test can be described thus: co-IP; 175 ug of RIPA lysate of primary normal or OA osteoblasts (serum-free overnight; basal or 50 ng/ml IGF-1 for various times) incubated with 4 ug anti-IRS-1 antibody overnight at 4 C; SDS-PAGE and western blot of the partner. (In general: A western blot detects proteins with antibodies after separation by electrophoresis.)

Grb2 (from UniProt P62993 1-217): the binding result is listed as “binds weakly”.
